Measurements from publication PMC8186375.
Results are given in words; binding and its absence hold for the method and conditions named. Binding seen in cells or lysates may run through a third protein. Some binding calls cover weakened binding; strength is not graded here.

Chains of the proteins cited; added tags and fusions are not shown.
UniProt P23528: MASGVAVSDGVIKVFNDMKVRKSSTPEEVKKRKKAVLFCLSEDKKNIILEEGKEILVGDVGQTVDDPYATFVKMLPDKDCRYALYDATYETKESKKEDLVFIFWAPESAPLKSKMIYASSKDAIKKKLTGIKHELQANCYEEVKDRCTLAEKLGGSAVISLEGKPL
UniProt P30153: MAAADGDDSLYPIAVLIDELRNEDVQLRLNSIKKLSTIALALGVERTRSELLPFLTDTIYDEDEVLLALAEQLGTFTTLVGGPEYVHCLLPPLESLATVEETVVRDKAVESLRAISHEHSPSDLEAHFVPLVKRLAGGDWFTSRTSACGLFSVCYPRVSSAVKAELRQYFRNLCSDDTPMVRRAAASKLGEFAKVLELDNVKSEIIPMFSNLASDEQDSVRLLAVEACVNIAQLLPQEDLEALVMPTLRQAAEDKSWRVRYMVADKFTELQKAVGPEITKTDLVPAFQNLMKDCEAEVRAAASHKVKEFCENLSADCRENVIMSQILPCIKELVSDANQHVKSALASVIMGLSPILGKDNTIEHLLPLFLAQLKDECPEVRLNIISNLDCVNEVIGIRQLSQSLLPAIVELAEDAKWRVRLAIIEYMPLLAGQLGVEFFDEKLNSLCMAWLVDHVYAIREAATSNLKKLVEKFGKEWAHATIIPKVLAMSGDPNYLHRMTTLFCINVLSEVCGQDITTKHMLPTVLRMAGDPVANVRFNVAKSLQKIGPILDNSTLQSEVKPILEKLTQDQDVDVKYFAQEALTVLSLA

Biological target: T1, Peroxiredoxin 1 (human (endogenous in DOK cells and in human OLK tissue)) (UniProt Q06830)
T1 sequence: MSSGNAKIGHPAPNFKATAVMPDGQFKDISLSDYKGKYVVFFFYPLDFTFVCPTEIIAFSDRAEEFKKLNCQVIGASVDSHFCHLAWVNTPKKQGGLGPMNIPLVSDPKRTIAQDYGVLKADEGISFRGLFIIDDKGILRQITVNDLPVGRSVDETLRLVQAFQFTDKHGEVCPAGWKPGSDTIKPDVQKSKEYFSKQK
Assay: proximity ligation; Duolink in situ PLA on sections of human OLK tissues of smokers; primary antibodies against Prx1 and CFL1, TPM3 or PPP2R1A, mouse- or rabbit-derived PLA probes; fluorescence microscopy

Row | binding | Substance
1 | binds | Cofilin-1 (from UniProt P23528 1-166)
2 | binds | Serine/threonine-protein phosphatase 2A 65 kDa regulatory subunit A alpha isoform (from UniProt P30153 1-589)
